Experimental findings from paper PMC5123387 are described below.

Protein sequences, listed by entry. Tags and fused reporters are not part of them. Residues count along the entry.
UniProt P37173, residues 23-567: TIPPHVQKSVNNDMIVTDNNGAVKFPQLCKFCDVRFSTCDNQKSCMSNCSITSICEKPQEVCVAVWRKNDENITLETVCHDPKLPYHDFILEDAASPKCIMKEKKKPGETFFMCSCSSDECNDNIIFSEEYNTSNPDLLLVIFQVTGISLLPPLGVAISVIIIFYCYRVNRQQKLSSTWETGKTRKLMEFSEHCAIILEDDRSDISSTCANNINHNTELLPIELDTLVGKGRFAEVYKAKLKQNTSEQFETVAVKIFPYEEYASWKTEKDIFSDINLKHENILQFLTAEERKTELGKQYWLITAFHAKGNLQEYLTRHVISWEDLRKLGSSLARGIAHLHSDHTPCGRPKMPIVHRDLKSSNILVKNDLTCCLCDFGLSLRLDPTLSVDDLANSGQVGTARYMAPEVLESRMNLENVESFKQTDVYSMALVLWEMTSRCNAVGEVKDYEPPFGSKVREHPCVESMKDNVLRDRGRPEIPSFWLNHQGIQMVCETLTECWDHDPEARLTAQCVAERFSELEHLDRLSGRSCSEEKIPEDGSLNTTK
UniProt P26041: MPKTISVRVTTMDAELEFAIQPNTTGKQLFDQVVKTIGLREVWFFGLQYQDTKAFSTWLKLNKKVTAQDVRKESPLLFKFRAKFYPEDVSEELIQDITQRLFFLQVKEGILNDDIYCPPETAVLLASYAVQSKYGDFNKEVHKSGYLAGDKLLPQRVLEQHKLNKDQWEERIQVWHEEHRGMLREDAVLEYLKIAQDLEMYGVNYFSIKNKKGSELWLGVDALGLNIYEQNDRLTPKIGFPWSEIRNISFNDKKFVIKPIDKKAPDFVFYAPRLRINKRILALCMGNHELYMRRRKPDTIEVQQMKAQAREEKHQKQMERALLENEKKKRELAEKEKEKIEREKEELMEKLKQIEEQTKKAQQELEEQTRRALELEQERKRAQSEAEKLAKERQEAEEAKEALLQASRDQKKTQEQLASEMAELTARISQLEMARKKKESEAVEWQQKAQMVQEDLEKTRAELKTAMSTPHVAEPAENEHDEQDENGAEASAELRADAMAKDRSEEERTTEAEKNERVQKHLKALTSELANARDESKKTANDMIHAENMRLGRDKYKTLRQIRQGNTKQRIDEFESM
UniProt P26038: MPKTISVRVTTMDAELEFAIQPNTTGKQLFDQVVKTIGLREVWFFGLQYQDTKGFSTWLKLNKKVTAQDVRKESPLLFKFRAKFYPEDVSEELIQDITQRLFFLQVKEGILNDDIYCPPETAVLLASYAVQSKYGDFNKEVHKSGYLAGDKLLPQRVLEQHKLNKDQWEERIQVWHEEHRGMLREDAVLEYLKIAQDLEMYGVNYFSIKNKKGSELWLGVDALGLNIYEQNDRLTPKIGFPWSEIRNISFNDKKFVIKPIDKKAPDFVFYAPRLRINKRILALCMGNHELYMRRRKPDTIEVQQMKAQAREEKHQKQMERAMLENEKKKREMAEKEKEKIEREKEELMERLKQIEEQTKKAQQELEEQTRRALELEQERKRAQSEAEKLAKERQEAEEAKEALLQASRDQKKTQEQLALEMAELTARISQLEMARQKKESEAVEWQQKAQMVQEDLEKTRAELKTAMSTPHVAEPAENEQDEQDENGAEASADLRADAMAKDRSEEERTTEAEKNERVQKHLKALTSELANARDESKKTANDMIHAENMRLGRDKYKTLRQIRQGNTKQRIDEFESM

For experiment [1], the target named is T1, TGF-β receptor II (mouse (endogenous in EL4)) (UniProt Q62312).
T1 sequence: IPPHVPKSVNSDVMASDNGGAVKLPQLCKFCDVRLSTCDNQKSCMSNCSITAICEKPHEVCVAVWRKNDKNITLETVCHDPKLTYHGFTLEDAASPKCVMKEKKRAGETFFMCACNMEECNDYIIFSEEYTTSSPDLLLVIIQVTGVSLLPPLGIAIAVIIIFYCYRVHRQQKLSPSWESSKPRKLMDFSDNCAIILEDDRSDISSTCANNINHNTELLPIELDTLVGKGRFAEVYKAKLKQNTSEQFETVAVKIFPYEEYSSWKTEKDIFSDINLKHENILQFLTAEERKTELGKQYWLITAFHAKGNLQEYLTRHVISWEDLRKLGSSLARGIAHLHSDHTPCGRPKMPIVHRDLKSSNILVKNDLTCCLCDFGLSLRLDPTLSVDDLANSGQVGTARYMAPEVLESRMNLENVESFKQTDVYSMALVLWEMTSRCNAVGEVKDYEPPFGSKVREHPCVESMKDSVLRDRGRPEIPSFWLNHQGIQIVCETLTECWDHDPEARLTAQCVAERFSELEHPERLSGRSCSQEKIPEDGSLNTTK
Put plainly: co-IP; immunoprecipitation with anti-TβRII and control immunoglobulin G antibodies of EL4 cell lysates, immunoblot of pulldown and input.

The target of experiment [2] is TβRII-tagged with haemagglutinin at the carboxy terminus (UniProt P37173). Put plainly: co-IP; HEK293FT cells co-transfected with Msn-WT-CFP and TβRII-HA; immunoprecipitation of solubilised proteins with anti-GFP and anti-HA antibodies, immunoblot. On the technique in general: In western blotting, separated proteins are transferred to a membrane and probed.

These are yes or no findings as the source states them, for the method shown. In cells and extracts the contact can be indirect. Some binding calls cover weakened binding; strength is not graded here.

Regarding moesin (from UniProt P26041 1-577), in experiment [1], the binding result is “binds”.

On to “wild-type moesin-tagged with CFP at the carboxy terminus (from UniProt P26038 1-577)”, for which, in experiment [2], the binding result is “binds”.
